Source: PubChem BioAssay AID624297 (National Center for Advancing Translational Sciences (NCATS), 2012)
Values joined by “and” are separate entries in the source; they are usually repeats but may differ in a detail not shown here. Identical values can stand only once. About 6,200 (1.8%) of roughly 340,000 compounds were called active. The shares of active, inactive and inconclusive entries below differ from those in the screen. Calls follow the shape of the dose curve; as a rule, active = well fitted activation curve with a large enough effect; inconclusive = small, poorly fitted or top-dose-only effect; inactive = no such curve, though single readings can be large or run the other way. A potency beside an inconclusive call is a rough fit, not a confirmed value.

Assay: A quantitative high throughput screen for small molecules that induce DNA re-replication in SW480 colon adenocarcinoma cells. Also: nearly all actives have a fitted effect of over 55% in size. As to re-replication activation: % of control where 0% means no effect.
Conditions: Hoechst DNA content imaging, 48 h; re-replication activation: at 46.1 µM (top of the series) unless noted
Outline: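 Treated cells incubate 48 hr (37 C, 5% CO2), are stained 40 min with Hoechst, and nuclear fluorescence is enumerated; a rise in nuclei with high DNA signal marks re-replication.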
Potency is read from the fitted curve at half-maximal effect.

Row | Structure (SMILES) | re-replication activation | Potency
1 | CSc1ccccc1C(=O)NCc1ccc2c(c1)OCO2 | inactive: 0.275% | 
2 | COc1ccc(N2CCN(C(=O)c3oc4ccccc4c3NC(=O)Cc3cccc(OC)c3)CC2)cc1 | inactive: -25.1% | 
3 | C=CCn1c(C)cc(C(=O)CSc2nc3ccccc3o2)c1C |  | inconclusive: 29.1 µM [activator, single point]
4 | COc1cccc(N/C(C)=C/C(=O)c2ccc(Br)cc2)c1 | inactive: 0.16% | 
5 | O=C(Nc1ccc2c(c1)OCCO2)C(=O)c1c[nH]c2ccccc12 |  | active: 4.61 µM
6 | COc1ccc([N+](=O)[O-])cc1N/C(=N/S(=O)(=O)c1ccccc1)c1ccccc1 |  | inconclusive: 20.6 µM [activator, single point]
7 | Cc1ccc(-c2nnn3c2nc(Cl)c2ccccc23)cc1 |  | inconclusive: 9.2 µM [activator, single point]
8 | O=C(Nc1cccnc1)c1noc2c1CCCC2 | inactive: -4.9% | 
9 | N#CC(C#N)=C1C=CC=CN1/C(=C\c1ccco1)C(=O)c1ccccc1 |  | inconclusive: 8.2 µM [activator, partial curve, poor fit]
10 | CN(c1ccc([N+](=O)[O-])cc1C(=O)Nc1ccccc1)C1CCCCC1 | inactive: 8.92% | 
11 | CN(Cc1ccccc1)S(=O)(=O)c1ccc(NC(=S)NC(=O)C2CCCCC2)cc1 |  | inconclusive: 25.9 µM [activator, single point]
12 | Cc1cccc(-c2ncc(CN3CCN(C4CCCC4)C(CCO)C3)cn2)c1 (stereo not drawn) |  | inconclusive: 29.1 µM [activator, single point]
13 | CN(Cc1ccccc1)c1nc(N)nc(Cl)c1C=O |  | active: 4.61 µM
14 | Cc1ccc(-c2nnc(SCC(=O)Nc3sc(C)c(C)c3C#N)n2C)cc1 | inactive: 4.07% | 
15 | COc1cc(NC(=S)N(C)C)c(OC)cc1Cl |  | inconclusive: 0.092 µM [activator, full curve, poor fit]
16 | CCOC(=O)C1(Cc2cccc(OC)c2)CCN(CCO)CC1 | inactive: -0.756% | 
17 | O=C(c1c[nH]c2ccccc12)C(Cl)c1ccccc1 (stereo not drawn) |  | inconclusive: 23.1 µM [activator, single point]
18 | O=C(COc1ccc(Nc2ccccc2)cc1)Nc1ccncc1 |  | inconclusive: 5.8 µM [activator, single point]
19 | CN1CCc2nc(SCC(=O)Nc3ccc(Cl)cc3)c(C#N)cc2C1 |  | inconclusive: 18.4 µM [activator, single point]
20 | CCOc1ccc(NCc2ccccc2OCc2cccc(F)c2)cc1 |  | inconclusive: 5.17 µM [activator, full curve, poor fit]
21 | CCCn1c(NC(=O)C2CCN(C(=O)c3ccccc3C)CC2)nc2ccccc21 |  | inconclusive: 29.1 µM [activator, partial curve, poor fit]
22 | c1ccc2c(c1)CCc1ccccc1C2=C1CCNCC1 | inactive: 21% | 
23 | COc1cccc(N=c2oc3ccccc3cc2-c2nc3ccccc3[nH]2)c1 | inactive: 18.6% | 
24 | CCOC(=O)c1c(C)nc2sc(C(=O)Nc3ccccc3)c(N)c2c1-c1ccc(OC)cc1 |  | inconclusive: 29.1 µM [activator, single point]
25 | Cc1cccc(C2NC(=O)c3ccccc3N2)c1 (stereo not drawn) |  | active: 16.4 µM

Row | Structure (SMILES) | re-replication activation | Potency
26 | Cc1[nH][nH]c(=O)c1C(c1cc([N+](=O)[O-])ccc1O)c1c(C)[nH][nH]c1=O |  | inconclusive: 0.0517 µM [activator, full curve, poor fit]
27 | COc1cccc(O)c1CN1CCC(Oc2ccc(C(=O)NCc3ccccn3)cc2)CC1 | inactive: -15.9% | 
28 | CCOC(=O)c1sc2nc(C(C)C)c3c(c2c1N)CCC3 |  | active: 18.4 µM
29 | CCOC(=O)/C(N=Nc1sc(C(=O)OC)c(C)c1C(=O)OCC)=C(\O)CCl | inactive: -4.25% | 
30 | CSc1nsc(/C=C/Nc2ccc(F)cc2F)c1C#N |  | inconclusive: 18.4 µM [activator, single point]
31 | Cc1ccsc1CNc1ncnc2ccc(-c3c(C)noc3C)cc12 | inactive: -0.926% | 
32 | O=c1[nH]c2ccc(NCc3ccccc3OCc3ccc(Cl)cc3)cc2[nH]1 | inconclusive: -29.6% [activator] | 
33 | Cc1ncc(CC(=O)n2cc(C(=O)c3cc(F)ccc3O)cn2)s1 |  | inconclusive: 23.1 µM [activator, single point]
34 | CCOC(=O)CNC(=O)c1sc(NC(=O)/C=C/c2ccccc2)nc1C |  | inconclusive: 16.4 µM [activator, single point]
35 | O=C(NNc1ccc(Cl)cc1)c1cccs1 | inactive: 29.1% | 
36 | Cc1ccc(C)c(S(=O)(=O)/N=C(/Nc2ccccc2)c2ccccc2)c1 |  | inconclusive: 16.4 µM [activator, single point]
37 | CC(NC(=O)c1cccc(N(C)C)c1)c1ccc(-n2ccnc2)cc1 (stereo not drawn) |  | inconclusive: 29.1 µM [activator, single point]
38 | COc1cccc(C=NCCCN=Cc2cccc(OC)c2O)c1O | inactive: -13.2% | 
39 | O=C(Nc1nc(-c2cccc3ccccc23)cs1)c1cnccn1 |  | inconclusive: 0.411 µM [activator, full curve, poor fit]
40 | Cc1cccn2c(=O)c3cc(C(=O)NC4CCCCC4)c(=N)n(CCN4CCOCC4)c3nc12 |  | inconclusive: 13 µM [activator, partial curve]
41 | COc1ccccc1-c1noc(-c2ccccc2)n1 | inactive: -3.13% | 
42 | N#Cc1ccc(OCC(O)CN2CCN(CC(O)COc3ccc(C#N)cc3)CC2)cc1 (stereo not drawn) | inactive: -4.57% | 
43 | CC(OC(=O)C1=COCCO1)C(=O)Nc1ccc(Oc2ccccc2)cc1 (stereo not drawn) | inactive: -5.76% | 
44 | CC(C)(C)c1ccc(NC(=O)CON=C(N)c2ccccc2)cc1 |  | active: 0.291 µM
45 | CNCCCC1c2ccccc2C=Cc2ccccc21 |  | inactive and inconclusive: 103 nM [activator, single point] and inconclusive: 29.1 µM [activator, single point]
46 | CCCN(CC(=O)Nc1cc(Cl)cc(Cl)c1)CC(=O)Nc1ccc(F)c(F)c1F |  | inconclusive: 18.4 µM [activator, single point]
47 | CCO[C@@H]1OC(C(=O)N2CCOCC2)=C[C@H](c2cn(C(C)=O)c3ccccc23)[C@H]1CCCO |  | inconclusive: 0.146 µM [activator, full curve, poor fit]
48 | CCOC(=O)c1c(NC(=O)Nc2ccc(C)cc2)sc2c1CCN(C)C2 |  | active: 18.4 µM
49 | CCOc1ccc2[nH]c3c(NCCN(CC)CC)ncnc3c2c1 |  | inconclusive: 29.1 µM [activator, partial curve, poor fit]
50 | COc1ccc(NS(=O)(=O)c2ccc(C)c(C(=O)N(C)Cc3ccc(C)cc3)c2)cc1 |  | inconclusive: 2.31 µM [activator, partial curve, poor fit]

Row | Structure (SMILES) | re-replication activation | Potency
51 | CCN1C(=O)c2cccc3c(S(=O)(=O)NCc4ccco4)ccc1c23 |  | inconclusive: 16.4 µM [activator, single point]
52 | Cc1nc2ccccc2nc1N/N=C/c1ccc(O)cc1O |  | active: 1.64 µM
53 | CCCCN(C(=O)c1cc(=O)[nH]c2ccccc12)c1c(N)n(CCCC)c(=O)[nH]c1=O | inactive: -2.45% | 
54 | COc1ccc(N2CCN(C(=O)CN3CCN(c4nc(-c5ccc(F)cc5)cs4)CC3)CC2)cc1 |  | inconclusive: 20.6 µM [activator, single point]
55 | Cc1cccc(OCc2n(CC(=O)OC3CC(C)CCC3C(C)C)c3ccccc3[n+]2C)c1 (stereo not drawn) |  | inconclusive: 20.6 µM [activator, single point]
56 | CC(=O)Nc1cccc(NC(=O)CSc2nc(C3CC3)nc3ccccc23)c1 |  | inconclusive: 23.1 µM [activator, partial curve, poor fit]
57 | O=C(N/N=C/c1c[nH]c2ccccc12)c1cc(-c2ccccc2)n[nH]1 | inactive: -10.8% | 
58 | CCCS(=O)(=O)C/C(N)=N/OC(=O)c1ccc(Cl)cc1 |  | inconclusive: 29.1 µM [activator, single point]
59 | CC1CCN(C2=C(NS(=O)(=O)c3ccc(Cl)cc3)C(=O)c3ccccc3C2=O)CC1 | inactive: -0.961% | 
60 | Cc1ccc(S(=O)(=O)/N=C(/Nc2cccc3ccccc23)c2ccc(F)cc2)cc1 |  | inconclusive: 18.4 µM [activator, single point]
61 | COc1ccc(OC)c(C(=O)c2oc3ccccc3c2NC(C)=O)c1 | inactive: 24.3% | 
62 | Cc1ccc(C(=O)CCNc2ccc(F)c(Cl)c2)o1 | inactive: -19.3% | 
63 | COc1cc(C2=NOC(C(=O)NCc3cccs3)C2)cc(OC)c1OC (stereo not drawn) |  | active: 6.51 µM
64 | CC(C)(C)Nc1nc(-c2ccc3c(c2)CCN3C(=O)C2CC2)cs1 |  | inconclusive: 18.4 µM [activator, single point]
65 | O=C1C=CC2(O[C@H](c3ccccc3)[C@@H](c3ccccc3)O2)[C@H](Sc2ccccc2O)C1 |  | inconclusive: 0.58 µM [activator, full curve, poor fit]
66 | Cc1cc(C)nc(Nc2ccccc2Cl)n1 | inactive: -1.21% | 
67 | CC(=O)N1CCOc2ccc(S(=O)(=O)N3CCC(C(=O)Nc4ccc(F)cc4)CC3)cc21 | inactive: -4.84% | 
68 | Cc1ccc(N2C(=O)CC(Sc3nc(C)cc(C)n3)C2=O)cc1 (stereo not drawn) |  | inconclusive: 18.4 µM [activator, single point]
69 | Cc1ccc(C(=O)Nc2ncc(Cc3ccc(SC(F)F)cc3)s2)cc1 |  | active: 0.731 µM
70 | O=C(Nc1nc2c(s1)CCCC2)c1ccc(S(=O)(=O)N2CCCc3ccccc32)cc1 | inactive: 8.13% | 
71 | Cc1ccc2nc(/C(C#N)=C/c3ccc(O)c(O)c3)[nH]c2c1 |  | active: 23.1 µM
72 | CCSc1ccc(-c2nn(-c3ccccc3)cc2/C=C(/C#N)C(=O)NCCCOC)cc1 |  | inconclusive: 20.6 µM [activator, single point]
73 | CCCCn1c(=O)[nH]c(=O)c2c1nc(-c1ccc(C)c([N+](=O)[O-])c1)n2CC |  | inconclusive: 0.206 µM [activator, partial curve, poor fit]
